Experimental data from the supplement of paper PMC10849652.
Some of the results follow.

Protein sequences, listed by entry. Tags and fused reporters are not part of them. Lines headed by an entry give the natural chain unless they say otherwise; changes in a name come on top.
UniProt Q8WZA0: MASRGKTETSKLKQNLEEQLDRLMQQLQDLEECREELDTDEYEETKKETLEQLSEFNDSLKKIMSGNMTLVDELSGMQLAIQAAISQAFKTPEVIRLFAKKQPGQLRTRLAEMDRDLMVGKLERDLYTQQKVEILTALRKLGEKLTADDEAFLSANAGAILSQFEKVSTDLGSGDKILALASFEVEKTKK
UniProt Q8N653: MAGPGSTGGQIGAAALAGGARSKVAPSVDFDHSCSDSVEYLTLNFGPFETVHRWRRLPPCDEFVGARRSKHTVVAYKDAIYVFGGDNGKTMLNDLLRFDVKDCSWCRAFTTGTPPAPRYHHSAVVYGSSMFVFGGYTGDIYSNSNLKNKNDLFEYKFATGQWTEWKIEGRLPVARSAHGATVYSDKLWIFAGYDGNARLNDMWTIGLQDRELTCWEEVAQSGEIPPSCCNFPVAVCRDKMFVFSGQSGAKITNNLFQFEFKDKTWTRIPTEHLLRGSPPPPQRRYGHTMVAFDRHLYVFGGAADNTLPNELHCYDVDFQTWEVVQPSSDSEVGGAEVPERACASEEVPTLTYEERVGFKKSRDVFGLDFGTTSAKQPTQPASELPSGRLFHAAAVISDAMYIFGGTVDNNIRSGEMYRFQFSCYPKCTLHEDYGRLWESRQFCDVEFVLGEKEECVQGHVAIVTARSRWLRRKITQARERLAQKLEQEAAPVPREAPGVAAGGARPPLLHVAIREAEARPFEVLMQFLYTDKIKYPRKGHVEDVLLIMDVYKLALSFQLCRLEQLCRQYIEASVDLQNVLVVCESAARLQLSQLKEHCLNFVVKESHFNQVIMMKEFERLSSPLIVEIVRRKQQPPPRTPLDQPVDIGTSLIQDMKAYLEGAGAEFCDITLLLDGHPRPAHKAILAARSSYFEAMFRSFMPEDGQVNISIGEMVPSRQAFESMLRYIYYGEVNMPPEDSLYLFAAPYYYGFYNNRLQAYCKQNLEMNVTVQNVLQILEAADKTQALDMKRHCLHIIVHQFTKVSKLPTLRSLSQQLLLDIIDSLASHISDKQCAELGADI
UniProt Q7Z3D4: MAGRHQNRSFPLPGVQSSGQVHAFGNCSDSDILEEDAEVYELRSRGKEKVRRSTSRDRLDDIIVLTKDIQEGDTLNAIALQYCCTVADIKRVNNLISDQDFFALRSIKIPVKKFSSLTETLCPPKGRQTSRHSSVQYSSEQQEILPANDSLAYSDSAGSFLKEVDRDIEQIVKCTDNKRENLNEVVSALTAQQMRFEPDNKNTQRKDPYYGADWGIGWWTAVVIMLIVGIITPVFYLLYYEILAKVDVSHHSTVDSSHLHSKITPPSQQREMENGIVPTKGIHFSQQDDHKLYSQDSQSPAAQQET
UniProt Q16659, whole entry, looked up: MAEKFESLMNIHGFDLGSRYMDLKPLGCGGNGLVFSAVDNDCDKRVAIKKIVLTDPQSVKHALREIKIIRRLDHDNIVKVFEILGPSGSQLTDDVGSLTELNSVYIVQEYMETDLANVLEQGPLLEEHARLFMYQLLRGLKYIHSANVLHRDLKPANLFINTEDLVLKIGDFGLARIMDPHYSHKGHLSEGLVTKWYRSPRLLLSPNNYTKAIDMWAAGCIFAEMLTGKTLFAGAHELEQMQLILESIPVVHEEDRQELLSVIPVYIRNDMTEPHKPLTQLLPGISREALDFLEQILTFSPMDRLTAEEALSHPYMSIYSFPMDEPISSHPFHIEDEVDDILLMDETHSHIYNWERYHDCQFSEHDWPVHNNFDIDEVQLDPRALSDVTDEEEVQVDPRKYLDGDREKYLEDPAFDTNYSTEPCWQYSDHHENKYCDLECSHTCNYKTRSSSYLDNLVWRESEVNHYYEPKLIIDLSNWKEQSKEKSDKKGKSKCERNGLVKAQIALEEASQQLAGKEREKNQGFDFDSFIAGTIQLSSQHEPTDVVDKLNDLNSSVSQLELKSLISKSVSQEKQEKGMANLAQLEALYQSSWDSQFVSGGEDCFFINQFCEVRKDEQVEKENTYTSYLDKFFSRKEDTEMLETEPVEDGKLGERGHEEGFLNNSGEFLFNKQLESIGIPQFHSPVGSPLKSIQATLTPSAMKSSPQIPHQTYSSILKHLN
UniProt Q96GX5: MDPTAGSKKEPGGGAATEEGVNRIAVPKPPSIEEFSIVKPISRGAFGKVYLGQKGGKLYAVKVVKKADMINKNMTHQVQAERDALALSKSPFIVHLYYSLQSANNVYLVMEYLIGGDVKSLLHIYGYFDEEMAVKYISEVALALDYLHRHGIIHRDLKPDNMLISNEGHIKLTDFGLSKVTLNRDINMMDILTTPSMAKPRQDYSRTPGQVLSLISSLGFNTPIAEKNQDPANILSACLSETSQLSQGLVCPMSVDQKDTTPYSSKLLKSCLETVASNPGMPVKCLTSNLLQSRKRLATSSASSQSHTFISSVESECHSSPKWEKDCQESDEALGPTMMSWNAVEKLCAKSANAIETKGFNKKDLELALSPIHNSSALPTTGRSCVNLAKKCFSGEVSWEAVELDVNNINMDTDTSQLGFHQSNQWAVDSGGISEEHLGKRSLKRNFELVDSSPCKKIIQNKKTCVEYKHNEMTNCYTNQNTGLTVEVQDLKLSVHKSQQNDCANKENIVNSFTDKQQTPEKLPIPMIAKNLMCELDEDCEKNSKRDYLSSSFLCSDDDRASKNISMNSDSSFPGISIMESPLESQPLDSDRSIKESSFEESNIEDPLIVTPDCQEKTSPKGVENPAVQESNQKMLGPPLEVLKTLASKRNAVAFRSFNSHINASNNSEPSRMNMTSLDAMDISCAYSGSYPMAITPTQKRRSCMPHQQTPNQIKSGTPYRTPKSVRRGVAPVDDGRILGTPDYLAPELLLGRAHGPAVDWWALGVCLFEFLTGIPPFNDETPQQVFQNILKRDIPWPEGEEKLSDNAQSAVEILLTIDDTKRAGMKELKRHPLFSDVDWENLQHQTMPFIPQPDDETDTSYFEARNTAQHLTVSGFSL
UniProt P29966: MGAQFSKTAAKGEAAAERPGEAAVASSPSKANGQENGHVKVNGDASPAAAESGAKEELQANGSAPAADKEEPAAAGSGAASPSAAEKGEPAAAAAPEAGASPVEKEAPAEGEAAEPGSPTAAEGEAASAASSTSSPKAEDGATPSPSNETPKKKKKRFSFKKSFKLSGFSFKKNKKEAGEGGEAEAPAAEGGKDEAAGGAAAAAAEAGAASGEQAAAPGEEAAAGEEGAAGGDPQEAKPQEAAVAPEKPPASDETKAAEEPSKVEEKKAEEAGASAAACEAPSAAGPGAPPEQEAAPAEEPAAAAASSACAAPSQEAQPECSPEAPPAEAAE
UniProt Q15013: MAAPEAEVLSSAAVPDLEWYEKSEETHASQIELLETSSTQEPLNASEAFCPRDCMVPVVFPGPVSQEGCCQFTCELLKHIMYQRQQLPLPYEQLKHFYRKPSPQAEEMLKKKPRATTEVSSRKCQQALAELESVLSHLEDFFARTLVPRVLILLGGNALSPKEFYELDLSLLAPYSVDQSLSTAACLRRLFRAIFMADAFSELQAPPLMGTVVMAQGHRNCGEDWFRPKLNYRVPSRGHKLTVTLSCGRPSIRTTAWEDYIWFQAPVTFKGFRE
UniProt P27361, whole entry, looked up: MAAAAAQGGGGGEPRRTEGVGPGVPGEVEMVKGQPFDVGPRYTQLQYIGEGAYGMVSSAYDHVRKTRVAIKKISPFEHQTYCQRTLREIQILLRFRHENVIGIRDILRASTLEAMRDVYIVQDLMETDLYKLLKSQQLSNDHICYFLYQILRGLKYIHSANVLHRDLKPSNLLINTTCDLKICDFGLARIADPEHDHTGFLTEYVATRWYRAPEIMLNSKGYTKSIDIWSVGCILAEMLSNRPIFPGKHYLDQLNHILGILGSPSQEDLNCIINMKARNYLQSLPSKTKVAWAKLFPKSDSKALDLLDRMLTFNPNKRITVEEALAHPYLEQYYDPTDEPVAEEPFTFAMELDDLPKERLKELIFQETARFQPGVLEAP
UniProt Q9UNF1: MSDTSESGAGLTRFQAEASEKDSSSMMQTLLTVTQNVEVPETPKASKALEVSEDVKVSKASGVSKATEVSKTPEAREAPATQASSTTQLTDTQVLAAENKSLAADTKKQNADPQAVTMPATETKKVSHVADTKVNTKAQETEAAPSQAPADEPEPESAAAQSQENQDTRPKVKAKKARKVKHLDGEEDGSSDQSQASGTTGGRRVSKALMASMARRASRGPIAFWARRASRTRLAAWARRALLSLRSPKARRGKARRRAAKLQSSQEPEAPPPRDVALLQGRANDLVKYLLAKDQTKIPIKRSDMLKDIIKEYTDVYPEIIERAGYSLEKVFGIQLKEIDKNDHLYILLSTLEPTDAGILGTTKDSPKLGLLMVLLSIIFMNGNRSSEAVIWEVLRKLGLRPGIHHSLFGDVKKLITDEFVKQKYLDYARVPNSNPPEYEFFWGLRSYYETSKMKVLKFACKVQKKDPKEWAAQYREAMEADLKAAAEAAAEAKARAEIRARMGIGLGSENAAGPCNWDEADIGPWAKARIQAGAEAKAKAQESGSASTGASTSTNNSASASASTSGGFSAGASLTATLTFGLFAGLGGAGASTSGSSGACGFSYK
UniProt Q16644, whole entry, looked up: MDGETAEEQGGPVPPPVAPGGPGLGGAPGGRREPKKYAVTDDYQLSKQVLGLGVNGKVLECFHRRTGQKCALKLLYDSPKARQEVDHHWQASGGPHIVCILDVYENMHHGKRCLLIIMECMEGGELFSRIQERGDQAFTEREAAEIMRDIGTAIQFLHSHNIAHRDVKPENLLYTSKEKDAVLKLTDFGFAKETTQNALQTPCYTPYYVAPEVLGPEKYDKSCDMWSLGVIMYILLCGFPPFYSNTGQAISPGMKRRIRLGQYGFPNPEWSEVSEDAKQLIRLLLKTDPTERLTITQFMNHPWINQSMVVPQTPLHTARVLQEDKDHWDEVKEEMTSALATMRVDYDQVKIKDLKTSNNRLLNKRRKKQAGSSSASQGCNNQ
UniProt O00462: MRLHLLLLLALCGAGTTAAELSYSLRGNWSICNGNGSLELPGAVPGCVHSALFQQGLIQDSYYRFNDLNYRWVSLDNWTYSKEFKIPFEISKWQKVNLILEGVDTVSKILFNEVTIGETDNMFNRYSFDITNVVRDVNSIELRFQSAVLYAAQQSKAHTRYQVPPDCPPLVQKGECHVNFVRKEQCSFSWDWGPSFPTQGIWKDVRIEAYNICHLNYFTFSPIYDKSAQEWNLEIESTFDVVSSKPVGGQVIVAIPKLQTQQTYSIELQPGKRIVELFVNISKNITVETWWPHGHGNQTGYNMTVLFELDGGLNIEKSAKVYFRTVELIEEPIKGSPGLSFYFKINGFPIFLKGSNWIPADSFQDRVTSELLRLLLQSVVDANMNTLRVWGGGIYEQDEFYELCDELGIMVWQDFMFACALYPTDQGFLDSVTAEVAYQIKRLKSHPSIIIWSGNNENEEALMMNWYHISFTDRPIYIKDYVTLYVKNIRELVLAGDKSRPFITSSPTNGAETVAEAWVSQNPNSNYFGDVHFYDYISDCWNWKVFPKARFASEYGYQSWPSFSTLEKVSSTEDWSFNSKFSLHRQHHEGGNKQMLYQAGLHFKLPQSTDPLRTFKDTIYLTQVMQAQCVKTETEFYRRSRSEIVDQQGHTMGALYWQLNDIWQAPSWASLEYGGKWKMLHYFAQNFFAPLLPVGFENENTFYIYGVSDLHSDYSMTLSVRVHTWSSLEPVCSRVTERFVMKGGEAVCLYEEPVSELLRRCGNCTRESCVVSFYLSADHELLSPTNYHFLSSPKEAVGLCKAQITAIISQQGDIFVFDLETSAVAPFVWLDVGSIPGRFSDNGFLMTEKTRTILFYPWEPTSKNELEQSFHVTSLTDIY
UniProt O15479: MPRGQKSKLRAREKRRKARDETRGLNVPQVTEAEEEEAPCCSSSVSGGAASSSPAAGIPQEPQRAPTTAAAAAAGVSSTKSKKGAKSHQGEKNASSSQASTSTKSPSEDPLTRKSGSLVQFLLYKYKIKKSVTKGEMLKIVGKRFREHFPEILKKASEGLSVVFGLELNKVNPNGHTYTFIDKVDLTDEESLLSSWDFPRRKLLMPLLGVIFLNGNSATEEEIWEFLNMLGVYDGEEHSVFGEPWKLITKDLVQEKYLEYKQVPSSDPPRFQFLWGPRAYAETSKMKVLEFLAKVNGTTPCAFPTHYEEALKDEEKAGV
UniProt Q8IW41: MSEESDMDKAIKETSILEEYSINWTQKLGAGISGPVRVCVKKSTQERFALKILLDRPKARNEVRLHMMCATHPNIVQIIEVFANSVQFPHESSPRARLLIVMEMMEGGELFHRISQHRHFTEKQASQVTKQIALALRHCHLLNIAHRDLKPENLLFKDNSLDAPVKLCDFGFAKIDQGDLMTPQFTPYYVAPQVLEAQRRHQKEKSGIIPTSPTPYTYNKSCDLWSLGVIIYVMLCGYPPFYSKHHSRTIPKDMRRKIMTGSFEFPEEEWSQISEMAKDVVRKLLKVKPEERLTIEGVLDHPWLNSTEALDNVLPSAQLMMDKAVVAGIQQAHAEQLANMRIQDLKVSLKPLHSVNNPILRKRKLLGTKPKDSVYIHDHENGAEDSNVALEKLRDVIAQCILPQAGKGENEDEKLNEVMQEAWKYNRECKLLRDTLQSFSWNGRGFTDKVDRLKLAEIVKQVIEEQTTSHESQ

Experiments:
Test in all cases: log2 fold change, soluble protein after heating vs DMSO (PISA); higher = thermal stabilisation; K562 lysate, 10 uM; active = over 0.2 and 3.5 SD of the protein, either way, in both replicates (recomputed)
ibrutinib = compound: C=CC(=O)N1CCC[C@@H](n2nc(-c3ccc(Oc4ccccc4)cc3)c3c(N)ncnc32)C1 [ibrutinib]
In short: (§1)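 Dounce homogenisation of K562 pellets in PBS pH 7.4 with 1 mM MgCl2 produced a crude extract, used at 1 mg/mL protein. Exposure to 10 μM compound lasted 30 min, and aliquots were then heated for 3 min across 48°C-58°C, pooled and brought to 0.5% NP-40 at 4°C. The supernatant after 21,000xg for 90 min was quantified by TMTpro 16plex LC-MS/MS with channel sums equalised. Duplicate values are given as log-two fold change in thermal stability relative to solvent controls.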

[1] = compound: CC(=O)c1cnc2ccc(-c3cc(Cl)c(O)c(Cl)c3)nc2c1N[C@H]1CC[C@H](CN(C)C)CC1
In short: as §1

ralimetinib = compound: CC(C)(C)Cn1c(N)nc2ccc(-c3[nH]c(C(C)(C)C)nc3-c3ccc(F)cc3)nc21 [ralimetinib]
In short: as §1

[2] = compound: CC(C)(O)CC(=O)NCCn1ccc2ncnc(Nc3ccc(Oc4cccc(C(F)(F)F)c4)c(Cl)c3)c21
In short: as §1

[3] = compound: CC(C)C1=C2N=C(C=C(N2N=C1)NCC3=CC=CC=C3)NCCCCCCN
In short: as §1

[4] = compound: CC1=C(C(CC(=O)N1)C2=CC=C(C=C2)C(F)(F)F)C(=O)NC3=C(C=C4C(=C3)C=NN4)F
In short: as §1

[5] = compound: CC1=C(C2=C(C=C1)C(=O)C3=CC=CC=C3N2CCCN)C
In short: as §1

[6] = compound: CC1=C(C=C(C=C1)NC(=O)C2=CC(=CC=C2)C(C)(C)C#N)NC3=CC4=C(C=C3)N=CN(C4=O)C
In short: as §1

[7] = compound: CC1=C(C=C(C=C1)NC(=O)C2=CC(=CC=C2)N(C)C)NC(=O)C3=CC=C(C=C3)O
In short: as §1

[8] = compound: CC1=CC=C(C=C1)SC2=C3C=C(SC3=CN=C2)C(=O)N
In short: as §1

vemurafenib = compound: CCCS(=O)(=O)Nc1ccc(F)c(C(=O)c2c[nH]c3ncc(-c4ccc(Cl)cc4)cc23)c1F [vemurafenib]
In short: as §1

[9] = compound: CCCS(=O)(=O)Nc1ccc(F)c(C(=O)c2c[nH]c3ncc(Cl)cc23)c1F
In short: as §1

barasertib = compound: CCN(CCCOc1ccc2c(Nc3cc(CC(=O)Nc4cccc(F)c4)[nH]n3)ncnc2c1)CCOP(=O)(O)O [barasertib]
In short: as §1

[10] = compound: CC[C@@H]1C(=O)N(C)c2cnc(Nc3ccc(C(=O)NC4CCN(C)CC4)cc3OC)nc2N1C1CCCC1
In short: as §1

volasertib = compound: CC[C@@H]1C(=O)N(C)c2cnc(Nc3ccc(C(=O)N[C@H]4CC[C@H](N5CCN(CC6CC6)CC5)CC4)cc3OC)nc2N1C(C)C [volasertib]
In short: as §1

[11] = compound: CCn1c(C(=O)N(C2CC2)C2CC2)cc2c3c(ncn3C)c(Nc3cc(C)n(C)n3)nc21
In short: as §1

[12] = compound: CCn1cc(-c2ccnc3[nH]c(-c4cccc(CN(C)C)c4)cc23)c(-c2ccc(NC(=O)N(C)C)cc2)n1
In short: as §1

[13] = compound: CN1CCC(CNc2ccc3ncc(-c4cccc(OC(F)(F)F)c4)n3n2)CC1
In short: as §1

saracatinib = compound: CN1CCN(CCOc2cc(OC3CCOCC3)c3c(Nc4c(Cl)ccc5c4OCO5)ncnc3c2)CC1 [saracatinib]
In short: as §1

sotrastaurin = compound: CN1CCN(c2nc(C3=C(c4c[nH]c5ccccc45)C(=O)NC3=O)c3ccccc3n2)CC1 [sotrastaurin]
In short: as §1

Target | log2 fold change (ibrutinib) | log2 fold change [1] | log2 fold change (ralimetinib) | log2 fold change [2] | log2 fold change [3] | log2 fold change [4] | log2 fold change [5] | log2 fold change [6] | log2 fold change [7] | log2 fold change [8] | log2 fold change (vemurafenib) | log2 fold change [9] | log2 fold change (barasertib) | log2 fold change [10] | log2 fold change (volasertib) | log2 fold change [11] | log2 fold change [12] | log2 fold change [13] | log2 fold change (saracatinib) | log2 fold change (sotrastaurin)
LZIC isoform 2 (UniProt Q8WZA0) | inactive: 0.005 | inactive: 0.016 | inactive: -0.025 | inactive: 0.049 | inactive: 0.013 | inactive: -0.009 | inactive: -0.016 | inactive: 0.01 | inactive: -0.03 | inactive: -0.025 | inactive: -0.058 | inactive: -0.011 | inactive: -0.017 | inactive: 0.038 | inactive: 0.006 | inactive: 0.003 | inactive: 0.013 | inactive: 0.014 | inactive: 0.022 | inactive: -0.032
LZTR1 (UniProt Q8N653) | inactive: -0.074 | inactive: -0.441 | inactive: -0.023 | inactive: 0.102 | inactive: 0.009 | inactive: 0.048 | inactive: -0.014 | inactive: -0.001 | inactive: 0.113 | inactive: 0.041 | inactive: 0.026 | inactive: -0.118 | inactive: 0.081 | inactive: 0.002 | inactive: -0.125 | inactive: -0.012 | inactive: 0 | inactive: -0.047 | inactive: -0.031 | inactive: 0.065
LYSMD3 (UniProt Q7Z3D4) | inactive: 0.098 | inactive: -0.072 | inactive: 0.003 | inactive: -0.046 | inactive: -0.045 | inactive: -0.099 | inactive: -0.003 | inactive: 0.034 | inactive: 0.005 | inactive: -0.01 | inactive: 0.025 | inactive: -0.05 | inactive: -0.003 | inactive: 0.074 | inactive: 0.056 | inactive: -0.013 | inactive: -0.094 | inactive: 0.235 | inactive: 0.056 | inactive: 0.002
MAPK6 (UniProt Q16659) | inactive: 0.07 | inactive: 0.025 | inactive: 0.004 | inactive: -0.05 | inactive: 0.012 | inactive: 0 | inactive: 0 | inactive: -0.006 | inactive: 0.029 | inactive: 0.021 | inactive: 0.006 | inactive: 0.001 | inactive: 0.047 | inactive: 0.034 | inactive: -0.001 | inactive: -0.029 | active: 0.221 | inactive: -0.02 | inactive: -0.014 | inactive: 0.014
MASTL (UniProt Q96GX5) | inactive: 0.02 | inactive: 0.161 | inactive: 0.014 | inactive: -0.022 | inactive: 0.004 | inactive: 0 | inactive: -0.041 | inactive: -0.023 | inactive: 0.089 | inactive: 0.027 | inactive: 0.039 | inactive: -0.021 | inactive: 0.058 | inactive: 0.03 | inactive: -0.031 | inactive: -0.123 | inactive: -0.231 | inactive: 0.002 | inactive: 0.006 | inactive: -0.02
MARCKS (UniProt P29966) | inactive: 0.008 | inactive: 0.05 | inactive: 0 | inactive: 0.028 | inactive: -0.031 | inactive: 0.008 | inactive: -0.027 | inactive: -0.018 | inactive: -0.004 | inactive: 0.073 | inactive: -0.095 | inactive: 0.035 | inactive: -0.012 | inactive: -0.031 | inactive: 0.066 | inactive: 0.039 | inactive: -0.11 | inactive: 0.013 | inactive: 0.039 | inactive: 0.014
MAD2L1BP isoform 3 (UniProt Q15013) | inactive: -0.016 | inactive: -0.099 | inactive: 0.038 | inactive: 0.015 | inactive: -0.037 | inactive: 0.107 | inactive: -0.054 | inactive: 0.005 | inactive: -0.011 | inactive: -0.05 | inactive: 0.003 | inactive: 0.009 | inactive: 0.054 | inactive: -0.076 | inactive: -0.042 | inactive: 0.022 | inactive: 0 | inactive: 0.03 | inactive: 0.021 | inactive: 0.01
MAPK3 (UniProt P27361) | inactive: 0.001 | inactive: 0.017 | inactive: -0.02 | inactive: -0.018 | inactive: -0.033 | inactive: -0.012 | inactive: -0.006 | inactive: 0.026 | inactive: -0.022 | inactive: -0.028 | inactive: 0.013 | inactive: -0.024 | inactive: -0.026 | inactive: 0.01 | inactive: -0.011 | inactive: -0.031 | inactive: 0 | inactive: 0.026 | inactive: 0 | inactive: -0.017
MALSU1 (UniProt Q96EH3) | inactive: 0.172 | inactive: -0.009 | inactive: 0.024 | inactive: -0.044 | inactive: 0.015 | inactive: 0.009 | inactive: -0.014 | inactive: 0.033 | inactive: 0.038 | inactive: 0.018 | inactive: 0.065 | inactive: 0.012 | inactive: 0.07 | inactive: 0.136 | inactive: -0.015 | inactive: 0 | inactive: -0.028 | inactive: -0.014 | inactive: -0.073 | inactive: 0.014
MAGED2 (UniProt Q9UNF1) | inactive: -0.063 | inactive: -0.057 | inactive: -0.014 | inactive: -0.141 | inactive: 0.027 | inactive: -0.009 | inactive: -0.024 | inactive: 0.005 | inactive: 0.042 | inactive: -0.098 | inactive: 0.051 | inactive: 0.031 | inactive: 0.002 | inactive: -0.019 | inactive: 0 | inactive: -0.092 | inactive: 0.024 | inactive: -0.089 | inactive: 0.065 | inactive: 0.009
MAN2A2 (UniProt P49641) | inactive: 0.115 | inactive: 0.015 | inactive: 0.052 | inactive: -0.013 | inactive: 0.02 | inactive: -0.022 | inactive: 0.013 | inactive: -0.005 | inactive: -0.011 | inactive: -0.017 | inactive: 0.036 | inactive: 0.013 | inactive: 0.084 | inactive: 0 | inactive: 0.001 | inactive: 0.002 | inactive: -0.049 | inactive: -0.043 | inactive: 0.004 | inactive: 0.002
MAPKAPK3 (UniProt Q16644) | inactive: 0.011 | inactive: 0.026 | inactive: 0.006 | inactive: -0.003 | inactive: -0.011 | inactive: 0.065 | inactive: -0.027 | inactive: 0.082 | inactive: 0.029 | inactive: 0.033 | inactive: -0.02 | inactive: -0.018 | inactive: 0.015 | inactive: -0.145 | inactive: 0.002 | inactive: 0.028 | inactive: -0.001 | inactive: -0.067 | inactive: 0.003 | inactive: -0.014
MANBA (UniProt O00462) | inactive: 0.019 | inactive: -0.005 | inactive: 0.016 | inactive: 0.016 | inactive: -0.017 | inactive: 0.003 | inactive: -0.029 | inactive: 0.003 | inactive: -0.002 | inactive: 0.005 | inactive: -0.016 | inactive: 0.051 | inactive: -0.015 | inactive: -0.012 | inactive: -0.052 | inactive: -0.003 | inactive: -0.038 | inactive: 0.066 | inactive: 0.024 | inactive: 0.015
MAGEB2 (UniProt O15479) | inactive: -0.021 | inactive: -0.002 | inactive: 0.004 | inactive: 0.034 | inactive: -0.005 | inactive: -0.001 | inactive: -0.041 | inactive: -0.009 | inactive: -0.001 | inactive: 0.026 | inactive: -0.013 | inactive: 0.02 | inactive: 0.02 | inactive: -0.019 | inactive: 0.017 | inactive: -0.013 | inactive: -0.003 | inactive: 0.01 | inactive: 0.018 | inactive: 0.018
MAP3K20 isoform 2 (UniProt Q9NYL2) | inactive: 0.15 | inactive: 0.012 | inactive: -0.082 | inactive: 0.016 | inactive: -0.029 | inactive: -0.062 | inactive: 0.028 | inactive: 0.022 | inactive: -0.129 | inactive: 0.065 | inactive: 0.082 | inactive: 0.074 | inactive: -0.026 | inactive: 0.216 | inactive: -0.133 | inactive: -0.002 | inactive: 0.064 | inactive: -0.065 | inactive: 0.097 | inactive: -0.064
MAPKAPK5 (UniProt Q8IW41) | inactive: -0.001 | inactive: -0.008 | inactive: -0.024 | inactive: -0.012 | inactive: 0 | inactive: -0.057 | inactive: -0.01 | inactive: 0.034 | inactive: 0.048 | inactive: -0.066 | inactive: -0.111 | inactive: -0.11 | inactive: -0.013 | inactive: -0.009 | inactive: -0.052 | inactive: 0.031 | inactive: 0.017 | inactive: -0.02 | inactive: -0.009 | inactive: -0.068

As entered above.
Value of MAPKAPK5 (UniProt Q8IW41) under log2 fold change [7]: inactive: 0.048
Value of LZIC isoform 2 (UniProt Q8WZA0) under log2 fold change [9]: inactive: -0.011
